In the assay the target is T1, FLAG-LRRC4B (UniProt Q9NT99).
T1 sequence: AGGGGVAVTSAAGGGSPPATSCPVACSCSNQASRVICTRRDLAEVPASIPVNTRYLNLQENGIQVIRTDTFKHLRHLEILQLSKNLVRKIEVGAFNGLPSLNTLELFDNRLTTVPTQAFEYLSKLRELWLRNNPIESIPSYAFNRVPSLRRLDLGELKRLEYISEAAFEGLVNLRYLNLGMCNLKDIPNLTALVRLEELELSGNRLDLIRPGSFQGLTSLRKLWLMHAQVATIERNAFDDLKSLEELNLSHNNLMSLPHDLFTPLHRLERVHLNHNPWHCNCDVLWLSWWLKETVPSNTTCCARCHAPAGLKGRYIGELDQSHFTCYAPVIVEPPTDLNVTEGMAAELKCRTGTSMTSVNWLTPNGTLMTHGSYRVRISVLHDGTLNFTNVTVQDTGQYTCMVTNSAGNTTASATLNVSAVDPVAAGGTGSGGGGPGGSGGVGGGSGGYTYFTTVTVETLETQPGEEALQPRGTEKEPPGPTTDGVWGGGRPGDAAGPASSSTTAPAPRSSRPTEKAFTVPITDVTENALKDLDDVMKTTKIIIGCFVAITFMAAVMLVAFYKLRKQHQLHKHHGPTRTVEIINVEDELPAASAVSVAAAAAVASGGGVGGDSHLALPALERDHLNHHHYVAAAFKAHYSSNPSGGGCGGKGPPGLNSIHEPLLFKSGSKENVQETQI
The assay can be described thus: co-IP; HEK293 cells transfected with FAM19A5 (WT or MT) and FLAG-LRRC4B plasmids; lysis in 20 mM Tris-HCl pH 7.4, 150 mM NaCl, 0.5% NP40; Protein G Dynabeads pre-incubated with antibodies (not named), overnight 4°C; washes with 300 mM NaCl.

Results are given in words; binding and its absence hold for the method and conditions named. Binding seen in cells or lysates may run through a third protein. Binding can be weak; no strength is given. Tags and fused reporters may be left off the sequences shown.

On to wild-type (WT) FAM19A5, for which the binding entry is listed as “binds”.

These data come from paper PMC12324117.
